According to the supplement of paper PMC4604168 (melanoma cell lines):
Some of the results follow. Repeats are few or missing, and single values can be far off.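 The apoptosis fraction was the count of cleaved-PARP antibody-stained nuclei relative to all DNA-stained nuclei, imaged in 1,536-well plates. Screening doses were set so most cells survived, and baseline and induced cleaved-PARP levels vary greatly across cell lines.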

How the values were obtained:
Assay in all cases: cleaved PARP positive nuclei fraction relative to DMSO control; melanoma cells; higher = more apoptosis
Details in all cases: library dose: low library concentration; 72 h
501Mel = tested on: 501Mel
A101D = tested on: A101D
A2058 = tested on: A2058
A375 = tested on: A375
C32 = tested on: C32
CBRC008 = tested on: CBRC008 (line from a melanoma biopsy)
CBRC014 = tested on: CBRC014 (line from a melanoma biopsy)
CBRC016 = tested on: CBRC016 (line from a melanoma biopsy)
CBRC017 = tested on: CBRC017 (line from a melanoma biopsy)
CBRC034 = tested on: CBRC034 (line from a melanoma biopsy)
COLO792 = tested on: COLO792
COLO800 = tested on: COLO800
COLO829 = tested on: COLO829
G361 = tested on: G361
IPC-298 = tested on: IPC-298
IST-MEL1 = tested on: IST-MEL1
LB2518-MEL = tested on: LB2518-MEL
LOXIMVI = tested on: LOXIMVI
MEL-HO = tested on: MEL-HO

Compound | cleaved PARP positive nuclei fraction (501Mel) [%] | cleaved PARP positive nuclei fraction (A101D) [%] | cleaved PARP positive nuclei fraction (A2058) [%] | cleaved PARP positive nuclei fraction (A375) [%] | cleaved PARP positive nuclei fraction (C32) [%] | cleaved PARP positive nuclei fraction (CBRC008) [%] | cleaved PARP positive nuclei fraction (CBRC014) [%] | cleaved PARP positive nuclei fraction (CBRC016) [%] | cleaved PARP positive nuclei fraction (CBRC017) [%] | cleaved PARP positive nuclei fraction (CBRC034) [%] | cleaved PARP positive nuclei fraction (COLO792) [%] | cleaved PARP positive nuclei fraction (COLO800) [%] | cleaved PARP positive nuclei fraction (COLO829) [%] | cleaved PARP positive nuclei fraction (G361) [%] | cleaved PARP positive nuclei fraction (IPC-298) [%] | cleaved PARP positive nuclei fraction (IST-MEL1) [%] | cleaved PARP positive nuclei fraction (LB2518-MEL) [%] | cleaved PARP positive nuclei fraction (LOXIMVI) [%] | cleaved PARP positive nuclei fraction (MEL-HO) [%]
Nc1ncn([C@H]2C[C@H](O)[C@@H](CO)O2)c(=O)n1 [decitabine] + Clc1ccc(Nc2nnc(Cc3ccncc3)c3ccccc23)cc1 [vatalanib] (first compound 0.1 µM, partner dose 2 µM) | 147 | 59.3 | 207 | 113 | 85.9 | 288 | 110 | 387 | 98.9 | 131 | 112 | 106 | 84.6 | 305 | 126 | 76.6 | 104 | 72.5 | 136
CS(=O)(=O)CCNCc1ccc(-c2ccc3ncnc(Nc4ccc(OCc5cccc(F)c5)c(Cl)c4)c3c2)o1 [lapatinib] + O=C(O)c1ccc2c(c1)nc(Nc1cccc(Cl)c1)c1ccncc12 [CX4945] (first compound 0.8 µM, partner dose 0.4 µM) | 152 | 45.1 | 129 | 177 | 84.6 | 192 | 150 | 94.8 | 168 | 72.7 | 99.8 | 89.5 | 161 | 114 | 141 | 29.4 | 162 | 390 | 127
CCCS(=O)(=O)Nc1ccc(F)c(C(=O)c2c[nH]c3ncc(Cl)cc23)c1F + COCC[n+]1c2c(n(Cc3cnccn3)c1C)C(=O)c1ccccc1C2=O [YM155] (first compound 0.08 µM, partner dose 0.0004 µM) | 72.2 | 103 | 82.1 | 253 | 102 | 109 | 94 | 115 | 103 | 63.4 | 93.2 | 40.2 | 99.5 | 82.2 | 57.2 | 46.8 | 235 | 226 | 87.6
Nc1ncn([C@H]2C[C@H](O)[C@@H](CO)O2)c(=O)n1 [decitabine] + Cn1c(Nc2ccc(C(F)(F)F)cc2)nc2cc(Oc3ccnc(-c4ncc(C(F)(F)F)[nH]4)c3)ccc21 [CHIR265] (first compound 0.1 µM, partner dose 0.08 µM) | 82.6 | 150 | 296 | 559 | 99 | 452 | 109 | 410 | 167 | 91.1 | 480 | 117 | 90.8 | 255 | 514 | 37.7 | 565 | 39.9 | 198
Cn1c(=O)n(-c2ccc(C(C)(C)C#N)cc2)c2c3cc(-c4cnc5ccccc5c4)ccc3ncc21 + Cn1nnc2c(C(N)=O)ncn2c1=O [temozolomide] (first compound 0.004 µM, partner dose 2 µM) | 136 | 52.7 | 112 | 229 | 92.5 | 99.2 | 116 | 139 | 221 | 69.4 | 122 | 53.3 | 137 | 100 | 92.6 | 72.2 | 106 | 73 | 57.4
O=C(O)[C@@H]1[O][Sb](=[O])([O][Sb]2(=[O])[O][C@H]([C@H](O)CO)[C@H](O)[C@H](C(=O)O)[O]2)[O][C@H]([C@H](O)CO)[C@@H]1O (stereo partly drawn) [stibogluconate] + Cn1nnc2c(C(N)=O)ncn2c1=O [temozolomide] (first compound 2 µM, partner dose 2 µM) | 54.6 | 49.7 | 95.6 | 99.8 | 72.4 | 92.6 | 111 | 135 | 73.8 | 73.9 | 79.5 | 195 | 60.3 | 74.5 | 90.1 | 66.7 | 223 | 39 | 135
CS(=O)(=O)CCNCc1ccc(-c2ccc3ncnc(Nc4ccc(OCc5cccc(F)c5)c(Cl)c4)c3c2)o1 [lapatinib] + Cn1nnc2c(C(N)=O)ncn2c1=O [temozolomide] (first compound 0.8 µM, partner dose 2 µM) | 72.7 | 30 | 53.2 | 83.5 | 324 | 73.7 | 101 | 98.4 | 80.1 | 63.8 | 80.2 | 111 | 169 | 71.1 | 84.3 | 137 | 190 | 30.6 | 131
